# Source: the supplement of paper PMC8728848
# The list shows a part of the results.
# Assays:
# Assay in all cases: glycan array binding signal (z-score within array); higher = stronger binding
# Conditions in all cases: glycan notation: IUPAC condensed, linker removed
# [1] = target: Neu5Ac(a2-3)Gal6S(b1-4)[Fuc(a1-3)]GlcNAc
# Method in brief: (§1)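 The binding signal is a Z-score computed within each array and averaged over linkers. Arrays of the same protein sequence at different concentrations or buffers were also averaged together. Data originate from 3228 arrays in the Consortium for Functional Glycomics database, kept only where the protein sequence was available.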
# Neu5Ac(a2-3)GalNAc = target: Neu5Ac(a2-3)GalNAc
# Method in brief: as §1
# [2] = target: Neu5Ac(a2-3)GalNAc(b1-4)GlcNAc
# Method in brief: as §1
# [3] = target: Neu5Ac(a2-3)[GalNAc(b1-4)]Gal(b1-4)Glc
# Method in brief: as §1
# [4] = target: Neu5Ac(a2-3)[GalNAc(b1-4)]Gal(b1-4)GlcNAc
# Method in brief: as §1
# [5] = target: Neu5Ac(a2-3)[GalNAc(b1-4)]Gal(b1-4)GlcNAc(b1-3)GalNAc
# Method in brief: as §1
# [6] = target: Neu5Ac(a2-3)[Neu5Ac(a2-6)]GalNAc
# Method in brief: as §1
# Neu5Ac(a2-6)Gal = target: Neu5Ac(a2-6)Gal
# Method in brief: as §1
# [7] = target: Neu5Ac(a2-6)Gal(b1-3)GlcNAc(b1-3)[Gal(b1-4)GlcNAc(b1-6)]Gal(b1-4)Glc
# Method in brief: as §1
# Neu5Ac(a2-6)Gal(b1-4)Glc = target: Neu5Ac(a2-6)Gal(b1-4)Glc
# Method in brief: as §1
# [8] = target: Neu5Ac(a2-6)Gal(b1-4)GlcNAc
# Method in brief: as §1
# [9] = target: Neu5Ac(a2-6)Gal(b1-4)GlcNAc(b1-2)Man
# Method in brief: as §1
# [10] = target: Neu5Ac(a2-6)Gal(b1-4)GlcNAc(b1-2)Man(a1-3)Man(b1-4)GlcNAc(b1-4)GlcNAc
# Method in brief: as §1
# [11] = target: Neu5Ac(a2-6)Gal(b1-4)GlcNAc(b1-2)Man(a1-3)[Gal(b1-4)GlcNAc(b1-2)Man(a1-6)]Man(b1-4)GlcNAc(b1-4)GlcNAc
# Method in brief: as §1
# [12] = target: Neu5Ac(a2-6)Gal(b1-4)GlcNAc(b1-2)Man(a1-3)[GlcNAc(b1-4)][Neu5Ac(a2-6)Gal(b1-4)GlcNAc(b1-2)Man(a1-6)]Man(b1-4)GlcNAc(b1-4)GlcNAc
# Method in brief: as §1
# [13] = target: Neu5Ac(a2-6)Gal(b1-4)GlcNAc(b1-2)Man(a1-3)[Man(a1-6)]Man(b1-4)GlcNAc(b1-4)GlcNAc
# Method in brief: as §1
# [14] = target: Neu5Ac(a2-6)Gal(b1-4)GlcNAc(b1-2)Man(a1-3)[Neu5Ac(a2-3)Gal(b1-4)GlcNAc(b1-2)Man(a1-6)]Man(b1-4)GlcNAc(b1-4)GlcNAc
# Method in brief: as §1
# [15] = target: Neu5Ac(a2-6)Gal(b1-4)GlcNAc(b1-2)Man(a1-3)[Neu5Ac(a2-6)Gal(b1-4)GlcNAc(b1-2)Man(a1-6)]Man(b1-4)GlcNAc(b1-4)GlcNAc
# Method in brief: as §1
# [16] = target: Neu5Ac(a2-6)Gal(b1-4)GlcNAc(b1-2)Man(a1-3)[Neu5Ac(a2-6)Gal(b1-4)GlcNAc(b1-2)Man(a1-6)]Man(b1-4)GlcNAc(b1-4)[Fuc(a1-6)]GlcNAc
# Method in brief: as §1
# [17] = target: Neu5Ac(a2-6)Gal(b1-4)GlcNAc(b1-2)Man(a1-6)Man(b1-4)GlcNAc(b1-4)GlcNAc
# Method in brief: as §1
# [18] = target: Neu5Ac(a2-6)Gal(b1-4)GlcNAc(b1-2)Man(a1-6)[Gal(b1-4)GlcNAc(b1-2)Man(a1-3)]Man(b1-4)GlcNAc(b1-4)GlcNAc
# Method in brief: as §1
# [19] = target: Neu5Ac(a2-6)Gal(b1-4)GlcNAc(b1-2)Man(a1-6)[GlcNAc(b1-2)Man(a1-3)]Man(b1-4)GlcNAc(b1-4)GlcNAc
# Method in brief: as §1
# [20] = target: Neu5Ac(a2-6)Gal(b1-4)GlcNAc(b1-2)Man(a1-6)[Man(a1-3)]Man(b1-4)GlcNAc(b1-4)GlcNAc
# Method in brief: as §1
# [21] = target: Neu5Ac(a2-6)Gal(b1-4)GlcNAc(b1-2)[Neu5Ac(a2-6)Gal(b1-4)GlcNAc(b1-4)]Man(a1-3)[GlcNAc(b1-4)][Neu5Ac(a2-6)Gal(b1-4)GlcNAc(b1-2)[Neu5Ac(a2-6)Gal(b1-4)GlcNAc(b1-6)]Man(a1-6)]Man(b1-4)GlcNAc(b1-4)GlcNAc
# Method in brief: as §1
# [22] = target: Neu5Ac(a2-6)Gal(b1-4)GlcNAc(b1-2)[Neu5Ac(a2-6)Gal(b1-4)GlcNAc(b1-4)]Man(a1-3)[GlcNAc(b1-4)][Neu5Ac(a2-6)Gal(b1-4)GlcNAc(b1-4)Man(a1-6)]Man(b1-4)GlcNAc(b1-4)GlcNAc
# Method in brief: as §1
# [23] = target: Neu5Ac(a2-6)Gal(b1-4)GlcNAc(b1-2)[Neu5Ac(a2-6)Gal(b1-4)GlcNAc(b1-6)]Man(a1-6)[Neu5Ac(a2-6)Gal(b1-4)GlcNAc(b1-2)Man(a1-3)][GlcNAc(b1-4)]Man(b1-4)GlcNAc(b1-4)GlcNAc
# Method in brief: as §1
# [24] = target: Neu5Ac(a2-6)Gal(b1-4)GlcNAc(b1-3)Gal(b1-3)GlcNAc
# Method in brief: as §1
# [25] = target: Neu5Ac(a2-6)Gal(b1-4)GlcNAc(b1-3)Gal(b1-4)GlcNAc
# Method in brief: as §1
# [26] = target: Neu5Ac(a2-6)Gal(b1-4)GlcNAc(b1-3)Gal(b1-4)GlcNAc(b1-2)Man(a1-3)[Neu5Ac(a2-6)Gal(b1-4)GlcNAc(b1-3)Gal(b1-4)GlcNAc(b1-2)Man(a1-6)]GalNAc
# Method in brief: as §1
# [27] = target: Neu5Ac(a2-6)Gal(b1-4)GlcNAc(b1-3)Gal(b1-4)GlcNAc(b1-3)Gal(b1-4)GlcNAc
# Method in brief: as §1
# [28] = target: Neu5Ac(a2-6)Gal(b1-4)GlcNAc(b1-3)Gal(b1-4)GlcNAc(b1-3)Gal(b1-4)GlcNAc(b1-2)Man(a1-3)[Neu5Ac(a2-6)Gal(b1-4)GlcNAc(b1-3)Gal(b1-4)GlcNAc(b1-3)Gal(b1-4)GlcNAc(b1-2)Man(a1-6)]GalNAc
# Method in brief: as §1
# [29] = target: Neu5Ac(a2-6)Gal(b1-4)GlcNAc(b1-3)Gal(b1-4)GlcNAc(b1-3)GalNAc
# Method in brief: as §1
# [30] = target: Neu5Ac(a2-6)Gal(b1-4)GlcNAc(b1-3)Gal(b1-4)GlcNAc(b1-3)[Neu5Ac(a2-6)Gal(b1-4)GlcNAc(b1-3)Gal(b1-4)GlcNAc(b1-6)]GalNAc
# Method in brief: as §1
# [31] = target: Neu5Ac(a2-6)Gal(b1-4)GlcNAc(b1-3)Gal(b1-4)GlcNAc(b1-6)[Gal(b1-3)]GalNAc
# Method in brief: as §1
# [32] = target: Neu5Ac(a2-6)Gal(b1-4)GlcNAc(b1-3)Gal(b1-4)[Fuc(a1-3)]GlcNAc(b1-3)Gal(b1-4)[Fuc(a1-3)]GlcNAc
# Method in brief: as §1
# [33] = target: Neu5Ac(a2-6)Gal(b1-4)GlcNAc(b1-3)GalNAc
# Method in brief: as §1
# [34] = target: Neu5Ac(a2-6)Gal(b1-4)GlcNAc(b1-3)[Neu5Ac(a2-6)Gal(b1-4)GlcNAc(b1-6)]GalNAc
# Method in brief: as §1
# [35] = target: Neu5Ac(a2-6)Gal(b1-4)GlcNAc(b1-6)GalNAc
# Method in brief: as §1
# [36] = target: Neu5Ac(a2-6)Gal(b1-4)GlcNAc(b1-6)[Gal(b1-3)GlcNAc(b1-3)]Gal(b1-4)Glc
# Method in brief: as §1
# [37] = target: Neu5Ac(a2-6)Gal(b1-4)GlcNAc(b1-6)[Gal(b1-3)]GalNAc
# Method in brief: as §1
# [38] = target: Neu5Ac(a2-6)Gal(b1-4)GlcNAc6S
# Method in brief: as §1
# Neu5Ac(a2-6)GalNAc = target: Neu5Ac(a2-6)GalNAc
# Method in brief: as §1
# [39] = target: Neu5Ac(a2-6)GalNAc(b1-4)GlcNAc
# Method in brief: as §1
# [40] = target: Neu5Ac(a2-6)GalNAc(b1-4)GlcNAc6S
# Method in brief: as §1
# [41] = target: Neu5Ac(a2-6)GlcNAc(b1-4)GlcNAc
# Method in brief: as §1
binder,measurement,setting,value
"LysMD3 (Homo sapiens), Q7Z3D4 (protein) MAGRHQNRSFPLPGVQSSGQVHAFGNCSDSDILEEDAEVYELRSRGKEKVRRSTSRDRLDDIIVLTKDIQEGDTLNAIALQYCCTVADIKRVNNLISDQDFFALRSIKIPVKKFSSLTETLCPPKGRQTSRHSSVQYSSEQQEILPANDSLAYSDSAGSFLKEVDRDIEQIVKCTDNKRENLNEVVSALTAQQMRFEPDNKNTQRKDPYYGADWGIG",glycan array binding signal (z-score),[1],-0.291
same,glycan array binding signal (z-score),Neu5Ac(a2-3)GalNAc,0.613
same,glycan array binding signal (z-score),[2],-0.11
same,glycan array binding signal (z-score),[3],-0.096
same,glycan array binding signal (z-score),[4],0.062
same,glycan array binding signal (z-score),[5],-0.66
same,glycan array binding signal (z-score),[6],-0.098
same,glycan array binding signal (z-score),Neu5Ac(a2-6)Gal,-0.97
same,glycan array binding signal (z-score),[7],-0.343
same,glycan array binding signal (z-score),Neu5Ac(a2-6)Gal(b1-4)Glc,-1.03
same,glycan array binding signal (z-score),[8],-0.353
same,glycan array binding signal (z-score),[9],-0.362
same,glycan array binding signal (z-score),[10],-1.22
same,glycan array binding signal (z-score),[11],-0.25
same,glycan array binding signal (z-score),[12],0.114
same,glycan array binding signal (z-score),[13],-1.15
same,glycan array binding signal (z-score),[14],-0.438
same,glycan array binding signal (z-score),[15],0.296
same,glycan array binding signal (z-score),[16],-1.29
same,glycan array binding signal (z-score),[17],-0.395
same,glycan array binding signal (z-score),[18],-0.492
same,glycan array binding signal (z-score),[19],-0.319
same,glycan array binding signal (z-score),[20],-0.631
same,glycan array binding signal (z-score),[21],-0.178
same,glycan array binding signal (z-score),[22],0.176
same,glycan array binding signal (z-score),[23],1.03
same,glycan array binding signal (z-score),[24],-0.372
same,glycan array binding signal (z-score),[25],-0.186
same,glycan array binding signal (z-score),[26],-0.611
same,glycan array binding signal (z-score),[27],0.502
same,glycan array binding signal (z-score),[28],0.078
same,glycan array binding signal (z-score),[29],-0.775
same,glycan array binding signal (z-score),[30],-0.5
same,glycan array binding signal (z-score),[31],-0.94
same,glycan array binding signal (z-score),[32],-0.545
same,glycan array binding signal (z-score),[33],-0.316
same,glycan array binding signal (z-score),[34],-0.88
same,glycan array binding signal (z-score),[35],-0.736
same,glycan array binding signal (z-score),[36],0.004
same,glycan array binding signal (z-score),[37],-0.706
same,glycan array binding signal (z-score),[38],-0.863
same,glycan array binding signal (z-score),Neu5Ac(a2-6)GalNAc,-0.582
same,glycan array binding signal (z-score),[39],-0.484
same,glycan array binding signal (z-score),[40],-0.178
same,glycan array binding signal (z-score),[41],-0.05

# A different layout for some results above.
binder | measurement | setting | value
LysMD3 (Homo sapiens), Q7Z3D4 (protein) MAGRHQNRSFPLPGVQSSGQVHAFGNCSDSDILEEDAEVYELRSRGKEKVRRSTSRDRLDDIIVLTKDIQEGDTLNAIALQYCCTVADIKRVNNLISDQDFFALRSIKIPVKKFSSLTETLCPPKGRQTSRHSSVQYSSEQQEILPANDSLAYSDSAGSFLKEVDRDIEQIVKCTDNKRENLNEVVSALTAQQMRFEPDNKNTQRKDPYYGADWGIG | glycan array binding signal (z-score) | [24] | -0.372
same | glycan array binding signal (z-score) | [35] | -0.736
same | glycan array binding signal (z-score) | [38] | -0.863
